{"source": "PubChem BioAssay AID602196 – INSERM – 2012", "aim": "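Genes whose knock-down alters cisplatin killing of lung cancer cells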", "cell system": "human A549 lung cancer cells", "knock-down reagent": "siRNA pair against human genes", "time to read-out": "48 h transfection before cisplatin; time from cisplatin to read-out not stated", "treatment": "cisplatin at a dose killing half of control-siRNA cells; exact dose and duration not given", "detection": "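Cisplatin cell death as a shift from the 50% death seen with control siRNA; siRNAs toxic or growth-blocking alone scored 0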", "reading the numbers": "two-siRNA summed score (-2 to +2): higher = both siRNAs protect from cisplatin killing; -2 means both sensitise; mean protection from cisplatin (shift in death): higher = protection from cisplatin killing", "hit rule": "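siRNAs harmful alone (LDH or WST-1) get 0; others get +1 for less and -1 for more cisplatin killing; genes are active when the two siRNAs give the same sign, summing to ±2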", "calls": "active = both siRNAs shift cisplatin killing the same way; inactive = no consistent shift, or siRNA harmful alone", "note": "Shown is one part, drawn at random, of about 23,000 reagents. 455 of them (2%) count as active. 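Active includes both protection and sensitisation; some change values fall well beyond the stated -50 to +50 range.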 The numbers tell different reagents against one gene apart. Further read-outs or replicates are left out here. Not stated in the record: the amount of reagent."}
{"gene knocked down": "RIMS3", "reagent": 1, "two-siRNA summed score (-2 to +2)": 0, "mean protection from cisplatin (shift in death) (%)": -0.5, "outcome": "inactive"}
{"gene knocked down": "DOP1A", "reagent": 1, "two-siRNA summed score (-2 to +2)": 0, "mean protection from cisplatin (shift in death) (%)": 0.6, "outcome": "inactive"}
{"gene knocked down": "AGAP1", "reagent": 1, "two-siRNA summed score (-2 to +2)": 0, "mean protection from cisplatin (shift in death) (%)": 6, "outcome": "inactive"}
{"gene knocked down": "ISX", "reagent": 1, "two-siRNA summed score (-2 to +2)": 0, "mean protection from cisplatin (shift in death) (%)": -1.2, "outcome": "inactive"}
{"gene knocked down": "LZTS3", "reagent": 1, "two-siRNA summed score (-2 to +2)": 0, "mean protection from cisplatin (shift in death) (%)": 5.1, "outcome": "inactive"}
{"gene knocked down": "ELAVL1", "reagent": 1, "two-siRNA summed score (-2 to +2)": 0, "mean protection from cisplatin (shift in death) (%)": -3.7, "outcome": "inactive"}
{"gene knocked down": "FOXG1", "reagent": 1, "two-siRNA summed score (-2 to +2)": 0, "mean protection from cisplatin (shift in death) (%)": 4.1, "outcome": "inactive"}
{"gene knocked down": "LOC388069", "reagent": 1, "two-siRNA summed score (-2 to +2)": 1, "mean protection from cisplatin (shift in death) (%)": 15.5, "outcome": "inactive"}
{"gene knocked down": "SIT1", "reagent": 1, "two-siRNA summed score (-2 to +2)": 0, "mean protection from cisplatin (shift in death) (%)": 19.4, "outcome": "inactive"}
{"gene knocked down": "PSMA8", "reagent": 1, "two-siRNA summed score (-2 to +2)": -1, "mean protection from cisplatin (shift in death) (%)": -3.1, "outcome": "inactive"}

Targets above whose target name starts with L or l:
{"gene knocked down": "LZTS3", "reagent": 1, "two-siRNA summed score (-2 to +2)": 0, "mean protection from cisplatin (shift in death) (%)": 5.1, "outcome": "inactive"}
{"gene knocked down": "LOC388069", "reagent": 1, "two-siRNA summed score (-2 to +2)": 1, "mean protection from cisplatin (shift in death) (%)": 15.5, "outcome": "inactive"}

The list goes on:
{"gene knocked down": "DHTKD1", "reagent": 1, "two-siRNA summed score (-2 to +2)": 1, "mean protection from cisplatin (shift in death) (%)": 6.8, "outcome": "inactive"}
{"gene knocked down": "KLC1", "reagent": 1, "two-siRNA summed score (-2 to +2)": -1, "mean protection from cisplatin (shift in death) (%)": -15.2, "outcome": "inactive"}
{"gene knocked down": "KLC1", "reagent": 2, "two-siRNA summed score (-2 to +2)": 0, "mean protection from cisplatin (shift in death) (%)": -21, "outcome": "inactive"}
{"gene knocked down": "MED9", "reagent": 1, "two-siRNA summed score (-2 to +2)": 0, "mean protection from cisplatin (shift in death) (%)": -4, "outcome": "inactive"}
{"gene knocked down": "EIF2AK2", "reagent": 1, "two-siRNA summed score (-2 to +2)": 1, "mean protection from cisplatin (shift in death) (%)": 5.4, "outcome": "inactive"}
{"gene knocked down": "ULBP3", "reagent": 1, "two-siRNA summed score (-2 to +2)": 0, "mean protection from cisplatin (shift in death) (%)": -2.5, "outcome": "inactive"}
{"gene knocked down": "PIP5K1B", "reagent": 1, "two-siRNA summed score (-2 to +2)": -2, "mean protection from cisplatin (shift in death) (%)": -14.8, "outcome": "active"}
{"gene knocked down": "LOC57228", "reagent": 1, "two-siRNA summed score (-2 to +2)": 0, "mean protection from cisplatin (shift in death) (%)": 11.7, "outcome": "inactive"}
{"gene knocked down": "DKFZP564D166", "reagent": 1, "two-siRNA summed score (-2 to +2)": 0, "mean protection from cisplatin (shift in death) (%)": 11.5, "outcome": "inactive"}
{"gene knocked down": "LOC284009", "reagent": 1, "two-siRNA summed score (-2 to +2)": 1, "mean protection from cisplatin (shift in death) (%)": 14.1, "outcome": "inactive"}
{"gene knocked down": "TRIM44", "reagent": 1, "two-siRNA summed score (-2 to +2)": 0, "mean protection from cisplatin (shift in death) (%)": -4.9, "outcome": "inactive"}
{"gene knocked down": "FBXL8", "reagent": 1, "two-siRNA summed score (-2 to +2)": -1, "mean protection from cisplatin (shift in death) (%)": -26.1, "outcome": "inactive"}
{"gene knocked down": "ITGA7", "reagent": 1, "two-siRNA summed score (-2 to +2)": -2, "mean protection from cisplatin (shift in death) (%)": -33.5, "outcome": "active"}
{"gene knocked down": "RBM28", "reagent": 1, "two-siRNA summed score (-2 to +2)": 0, "mean protection from cisplatin (shift in death) (%)": -3.6, "outcome": "inactive"}
{"gene knocked down": "DNAAF3", "reagent": 1, "two-siRNA summed score (-2 to +2)": 0, "mean protection from cisplatin (shift in death) (%)": 18.5, "outcome": "inactive"}
{"gene knocked down": "LOC440851", "reagent": 1, "two-siRNA summed score (-2 to +2)": 0, "mean protection from cisplatin (shift in death) (%)": 6.1, "outcome": "inactive"}
{"gene knocked down": "LYPD4", "reagent": 1, "two-siRNA summed score (-2 to +2)": -1, "mean protection from cisplatin (shift in death) (%)": -6.8, "outcome": "inactive"}
{"gene knocked down": "SRP14", "reagent": 1, "two-siRNA summed score (-2 to +2)": 0, "mean protection from cisplatin (shift in death) (%)": 4.1, "outcome": "inactive"}
{"gene knocked down": "PCOLCE2", "reagent": 1, "two-siRNA summed score (-2 to +2)": 0, "mean protection from cisplatin (shift in death) (%)": 2.9, "outcome": "inactive"}
{"gene knocked down": "PRSS35", "reagent": 1, "two-siRNA summed score (-2 to +2)": 0, "mean protection from cisplatin (shift in death) (%)": 7.4, "outcome": "inactive"}
{"gene knocked down": "ONECUT2", "reagent": 1, "two-siRNA summed score (-2 to +2)": 0, "mean protection from cisplatin (shift in death) (%)": 4.8, "outcome": "inactive"}
